According to PMC10774338:

Assays:
Assay in all cases: co-IP; GFP-WDR44 wild-type or variants transiently expressed in RPE1 WDR44 KO F4 cells for 48 h; GFP proteins immunoprecipitated from lysate, blots probed with GFP, RAB11 and VAPA antibodies
[1] = molecular target: T1, GFP-tagged WDR44 D648G (human) (UniProt Q5JSH3)
T1 sequence: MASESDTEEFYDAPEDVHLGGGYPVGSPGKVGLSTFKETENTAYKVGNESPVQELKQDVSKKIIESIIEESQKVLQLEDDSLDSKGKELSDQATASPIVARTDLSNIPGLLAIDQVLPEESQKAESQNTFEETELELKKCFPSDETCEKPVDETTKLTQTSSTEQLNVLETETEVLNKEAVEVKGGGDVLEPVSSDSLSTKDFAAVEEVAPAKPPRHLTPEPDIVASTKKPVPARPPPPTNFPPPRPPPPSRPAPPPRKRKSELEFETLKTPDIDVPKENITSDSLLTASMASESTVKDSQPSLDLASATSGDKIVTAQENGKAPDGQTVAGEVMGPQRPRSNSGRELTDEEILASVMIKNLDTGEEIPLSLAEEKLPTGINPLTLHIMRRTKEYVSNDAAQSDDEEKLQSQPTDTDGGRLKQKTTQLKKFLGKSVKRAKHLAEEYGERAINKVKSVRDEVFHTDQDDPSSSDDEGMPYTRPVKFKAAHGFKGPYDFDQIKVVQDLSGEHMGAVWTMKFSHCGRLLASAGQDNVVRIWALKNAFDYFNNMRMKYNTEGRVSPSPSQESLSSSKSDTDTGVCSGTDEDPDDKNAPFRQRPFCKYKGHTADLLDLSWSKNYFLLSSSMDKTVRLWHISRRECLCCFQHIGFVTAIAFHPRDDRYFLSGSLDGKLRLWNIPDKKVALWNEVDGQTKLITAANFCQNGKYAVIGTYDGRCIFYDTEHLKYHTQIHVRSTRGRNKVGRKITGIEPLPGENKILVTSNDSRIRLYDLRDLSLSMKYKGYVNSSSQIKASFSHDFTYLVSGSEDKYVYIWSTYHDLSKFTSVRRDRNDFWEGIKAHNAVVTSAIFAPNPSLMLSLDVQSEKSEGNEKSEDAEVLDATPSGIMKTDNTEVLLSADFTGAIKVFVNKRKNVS

[2] = molecular target: T2, GFP-tagged WDR44 H839R (human) (UniProt Q5JSH3)
T2 sequence: T1 sequence with G648D, H839R

[3] = molecular target: T3, GFP-tagged WDR44 L668S (human) (UniProt Q5JSH3)
T3 sequence: T1 sequence with G648D, L668S

Measured: binding

Endogenous RAB11
binds: all assays above

Positions count from the first letter of the chain named. Results are given in words; binding and its absence hold for the method and conditions named. Binding seen in cells or lysates may run through a third protein. A result given as binding can be weak or reduced; the word gives no strength. Sequences can lack the tags named with a protein.
